{"source": "PubChem BioAssay AID493246, Drosophila RNAi Screening Center – 2011", "assay": "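Identify essential fly genes by loss of cell viability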 (primary screen)", "cells": "Drosophila Kc and S2R+ cells", "knock-down reagent": "long dsRNA against Drosophila genes", "measurement": "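Raw, unnormalised count of remaining cells in each well; per-plate z-scores of cell number underlie the calls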", "reading the numbers": "Kc cell number and S2R+ cell number: higher = more cells remaining", "active means": "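Active when the per-plate z-score of cell number is 3 or more in the direction of fewer cells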", "note": "The screen tested about 21,000 reagents; below is a random part of those that have a named target and a result. Over the whole deposit, 429 (2%) are marked active. 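Values are raw and not normalised between plates; calls rest on per-plate z-scores that were not deposited.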 The numbers tell different reagents against one gene apart. Names joined by + are all predicted targets of the reagent. The record does not give: the amount of reagent, the time to read-out."}
{"predicted target": "CG1090", "reagent": 1, "Kc cell number, rep 1": 1.75e6, "Kc cell number, rep 2": 1.77e6, "S2R+ cell number, rep 1": 1.34e6, "S2R+ cell number, rep 2": 1.42e6, "outcome": "inactive"}
{"predicted target": "CG18011", "reagent": 1, "Kc cell number, rep 1": 1.51e6, "Kc cell number, rep 2": 1.53e6, "S2R+ cell number, rep 1": 1.15e6, "S2R+ cell number, rep 2": 1.24e6, "outcome": "inactive"}
{"predicted target": "CG18011", "reagent": 2, "Kc cell number, rep 1": 1.84e6, "Kc cell number, rep 2": 1.84e6, "S2R+ cell number, rep 1": 1.40e6, "S2R+ cell number, rep 2": 1.58e6, "outcome": "inactive"}
{"predicted target": "CG34229", "reagent": 1, "Kc cell number, rep 1": 1.63e6, "Kc cell number, rep 2": 1.61e6, "S2R+ cell number, rep 1": 1.28e6, "S2R+ cell number, rep 2": 1.41e6, "outcome": "inactive"}
{"predicted target": "sordd2 + sordd1", "reagent": 1, "Kc cell number, rep 1": 6.03e5, "S2R+ cell number, rep 1": 9.03e5, "outcome": "inactive"}
{"predicted target": "Ca-beta", "reagent": 1, "Kc cell number, rep 1": 1.69e6, "Kc cell number, rep 2": 1.71e6, "S2R+ cell number, rep 1": 1.23e6, "S2R+ cell number, rep 2": 1.34e6, "outcome": "inactive"}
{"predicted target": "Ca-beta", "reagent": 2, "Kc cell number, rep 1": 1.57e6, "Kc cell number, rep 2": 1.61e6, "S2R+ cell number, rep 1": 1.19e6, "S2R+ cell number, rep 2": 1.34e6, "outcome": "inactive"}
{"predicted target": "Ca-beta", "reagent": 3, "Kc cell number, rep 1": 1.61e6, "Kc cell number, rep 2": 1.75e6, "S2R+ cell number, rep 1": 1.05e6, "S2R+ cell number, rep 2": 1.14e6, "outcome": "inactive"}
{"predicted target": "SPH93", "reagent": 1, "Kc cell number, rep 1": 1.67e6, "Kc cell number, rep 2": 1.68e6, "S2R+ cell number, rep 1": 1.41e6, "S2R+ cell number, rep 2": 1.54e6, "outcome": "inactive"}
{"predicted target": "Spase25", "reagent": 1, "Kc cell number, rep 1": 5.58e5, "S2R+ cell number, rep 1": 8.27e5, "outcome": "inactive"}
{"predicted target": "CG3649", "reagent": 1, "Kc cell number, rep 1": 1.94e6, "Kc cell number, rep 2": 1.95e6, "S2R+ cell number, rep 1": 1.27e6, "S2R+ cell number, rep 2": 1.38e6, "outcome": "inactive"}
{"predicted target": "Rpp14b", "reagent": 1, "Kc cell number, rep 1": 1.52e6, "Kc cell number, rep 2": 1.59e6, "S2R+ cell number, rep 1": 1.05e6, "S2R+ cell number, rep 2": 1.42e6, "outcome": "inactive"}
{"predicted target": "sa", "reagent": 1, "Kc cell number, rep 1": 1.33e6, "Kc cell number, rep 2": 1.34e6, "S2R+ cell number, rep 1": 9.55e5, "S2R+ cell number, rep 2": 1.16e6, "outcome": "inactive"}
{"predicted target": "CG42238", "reagent": 1, "Kc cell number, rep 1": 1.24e6, "Kc cell number, rep 2": 1.34e6, "S2R+ cell number, rep 1": 1.09e6, "S2R+ cell number, rep 2": 1.02e6, "outcome": "inactive"}
{"predicted target": "mAChR-B", "reagent": 1, "Kc cell number, rep 1": 1.51e6, "Kc cell number, rep 2": 1.55e6, "S2R+ cell number, rep 1": 1.25e6, "S2R+ cell number, rep 2": 1.39e6, "outcome": "inactive"}
{"predicted target": "CtsL2", "reagent": 1, "Kc cell number, rep 1": 1.33e6, "Kc cell number, rep 2": 1.35e6, "S2R+ cell number, rep 1": 9.62e5, "S2R+ cell number, rep 2": 1.05e6, "outcome": "inactive"}
{"predicted target": "TwdlD", "reagent": 1, "Kc cell number, rep 1": 1.46e6, "Kc cell number, rep 2": 1.46e6, "S2R+ cell number, rep 1": 9.76e5, "S2R+ cell number, rep 2": 1.11e6, "outcome": "inactive"}
{"predicted target": "CG42703", "reagent": 1, "Kc cell number, rep 1": 6.99e5, "S2R+ cell number, rep 1": 9.91e5, "outcome": "inactive"}
{"predicted target": "Rtca", "reagent": 1, "Kc cell number, rep 1": 4.98e5, "S2R+ cell number, rep 1": 8.14e5, "outcome": "inactive"}
{"predicted target": "CG15196", "reagent": 1, "Kc cell number, rep 1": 1.51e6, "Kc cell number, rep 2": 1.41e6, "S2R+ cell number, rep 1": 1.05e6, "S2R+ cell number, rep 2": 1.05e6, "outcome": "inactive"}
{"predicted target": "MED25", "reagent": 1, "Kc cell number, rep 1": 7.17e5, "Kc cell number, rep 2": 1.08e6, "S2R+ cell number, rep 1": 3.58e5, "S2R+ cell number, rep 2": 4.72e5, "outcome": "active"}
{"predicted target": "CG13527", "reagent": 1, "Kc cell number, rep 1": 1.49e6, "Kc cell number, rep 2": 1.60e6, "S2R+ cell number, rep 1": 1.23e6, "S2R+ cell number, rep 2": 1.33e6, "outcome": "inactive"}
{"predicted target": "CG12795", "reagent": 1, "Kc cell number, rep 1": 1.49e6, "Kc cell number, rep 2": 1.43e6, "S2R+ cell number, rep 1": 1.10e6, "S2R+ cell number, rep 2": 1.28e6, "outcome": "inactive"}
{"predicted target": "CG13884", "reagent": 1, "Kc cell number, rep 1": 1.43e6, "Kc cell number, rep 2": 1.44e6, "S2R+ cell number, rep 1": 1.08e6, "S2R+ cell number, rep 2": 1.28e6, "outcome": "inactive"}
{"predicted target": "Cnx99A + Cnx14D", "reagent": 1, "Kc cell number, rep 1": 1.44e6, "Kc cell number, rep 2": 1.39e6, "S2R+ cell number, rep 1": 9.84e5, "S2R+ cell number, rep 2": 1.09e6, "outcome": "inactive"}
{"predicted target": "CG15449", "reagent": 1, "Kc cell number, rep 1": 1.66e6, "Kc cell number, rep 2": 1.66e6, "S2R+ cell number, rep 1": 1.14e6, "S2R+ cell number, rep 2": 1.22e6, "outcome": "inactive"}
{"predicted target": "CG6276", "reagent": 1, "Kc cell number, rep 1": 1.54e6, "Kc cell number, rep 2": 1.64e6, "S2R+ cell number, rep 1": 1.29e6, "S2R+ cell number, rep 2": 1.40e6, "outcome": "inactive"}

2 entries from above, ordered by “S2R+ cell number, rep 1”, ascending.
{"predicted target": "Spase25", "reagent": 1, "Kc cell number, rep 1": 5.58e5, "S2R+ cell number, rep 1": 8.27e5, "outcome": "inactive"}
{"predicted target": "SPH93", "reagent": 1, "Kc cell number, rep 1": 1.67e6, "Kc cell number, rep 2": 1.68e6, "S2R+ cell number, rep 1": 1.41e6, "S2R+ cell number, rep 2": 1.54e6, "outcome": "inactive"}
